Results as given in PubChem BioAssay AID330 (DTP/NCI, 2004).
The list shows only some results of the screen, not a fair sample: it gathers some chemical classes. Not every dose and run of a compound is shown. T/C gives the treated animals as a percentage of the vehicle group. Some doses have a count of surviving animals in place of a T/C: the source files T/C as zero there, which appears to mark a toxic dose or a test without result, not a measured value. Some survivor counts are full or nearly so, which does not show that the dose was tolerated: the source hardly ever lists a survival T/C far under the control, and the zero likely stands for such cases as well. Counts of survivors are from the toxicity check (mostly the fifth day) where no day follows; animals may have died later. Schedules are NCI's codes, read here as Q, the interval in days (D) or hours (H), X, the number of doses. For survival time, this PubChem deposit counts one and a half times the control or more as active, and values a quarter to a half above the control carry no call in these data; other NCI protocols may use other cut-offs. Additions like (4×) say how often a value occurs here. Some entries hold several experiments; the values are given in rising order. Some T/C values carry the count of animals alive at the toxicity check (mostly the fifth day); where neither a count nor a note follows, no animal had died by that day.

Tested on: P388 leukemia ip, CD2F1 mice, survival T/C
Test: NCI In Vivo Anticancer Drug Screen. Data for tumor model P388 Leukemia (intraperitoneal) in CD2F1 (CDF1) mice
Settings: T/C endpoint: median survival time, higher T/C = longer survival
[1] = dose: 50.0 mg/kg/injection, schedule: Q04DX003 (ip), vehicle: saline with Tween-80
[2] = dose: 100.0 mg/kg/injection, schedule: Q04DX003 (ip), vehicle: saline with Tween-80
[3] = dose: 100.0 mg/kg/injection, schedule: Q01DX009 (ip), vehicle: saline
[4] = dose: 200.0 mg/kg/injection, schedule: Q01DX009 (ip), vehicle: saline
[5] = dose: 400.0 mg/kg/injection, schedule: Q01DX009 (ip), vehicle: saline
[6] = dose: 100.0 mg/kg/injection, schedule: Q01DX001 (ip), vehicle: Klucel (hydroxypropylcellulose) (HPC)
[7] = dose: 25.0 mg/kg/injection, schedule: Q01DX009 (ip), vehicle: saline with Tween-80
[8] = dose: 50.0 mg/kg/injection, schedule: Q01DX009 (ip), vehicle: saline with Tween-80
[9] = dose: 50.0 mg/kg/injection, schedule: Q01DX009 (ip), vehicle: saline
[10] = dose: 50.0 mg/kg/injection, schedule: Q01DX009 (ip), vehicle: Klucel (hydroxypropylcellulose) (HPC)
[11] = dose: 100.0 mg/kg/injection, schedule: Q01DX009 (ip), vehicle: Klucel (hydroxypropylcellulose) (HPC)
[12] = dose: 200.0 mg/kg/injection, schedule: Q01DX009 (ip), vehicle: Klucel (hydroxypropylcellulose) (HPC)
[13] = dose: 50.0 mg/kg/injection, schedule: Q01DX009 (ip), vehicle: other

NC1(C(=O)O)CC2CCCC(C1)N2CCCl (stereo not drawn)
T/C (dose: 100.0 mg/kg/injection, schedule: Q01DX001 (ip), vehicle: saline): 104 % of control
T/C (dose: 200.0 mg/kg/injection, schedule: Q01DX001 (ip), vehicle: saline): 114 % of control
survivor count (dose: 400.0 mg/kg/injection, schedule: Q01DX001 (ip), vehicle: saline): 1 of 6

CCOCCOCCOP(C)(=O)OC(C)C (stereo not drawn)
T/C (dose: 100.0 mg/kg/injection, schedule: Q01DX005 (ip), vehicle: saline): 100 % of control
T/C (dose: 200.0 mg/kg/injection, schedule: Q01DX005 (ip), vehicle: saline): 98 % of control

S=P1(Cl)Oc2ccccc2-c2ccccc2O1
T/C [1]: 95 % of control
T/C [2]: 100 % of control
T/C (dose: 200.0 mg/kg/injection, schedule: Q04DX003 (ip), vehicle: saline with Tween-80): 100 % of control

ClCCN1OC12CCCCC2 (stereo not drawn)
T/C [3]: 123 and 134 % of control
T/C [4]: 133 and 148 % of control
T/C [5]: 114 % of control [4 of 6 alive]
survivor count [5]: 4 of 6

COC(=O)C(CCl)(NC(C)=O)SC(C)=O (stereo not drawn)
T/C (dose: 25.0 mg/kg/injection, schedule: Q01DX001 (ip), vehicle: Klucel (hydroxypropylcellulose) (HPC)): 105 % of control
T/C (dose: 50.0 mg/kg/injection, schedule: Q01DX001 (ip), vehicle: Klucel (hydroxypropylcellulose) (HPC)): 99 % of control
T/C [6]: 91 % of control
survivor count [6]: 3 of 6
survivor count (dose: 200.0 mg/kg/injection, schedule: Q01DX001 (ip), vehicle: Klucel (hydroxypropylcellulose) (HPC)): 2 of 6
survivor count (dose: 400.0 mg/kg/injection, schedule: Q01DX001 (ip), vehicle: Klucel (hydroxypropylcellulose) (HPC)): 0 of 6

ClC(CBr)CSC(Cl)(Cl)SC1CCCCC1 (stereo not drawn)
T/C [7]: 100 and 107 % of control
T/C [8]: 97 and 103 % of control
T/C [9]: 88 % of control
T/C (dose: 100.0 mg/kg/injection, schedule: Q01DX009 (ip), vehicle: saline with Tween-80): 99 and 106 % of control
T/C [3]: 99 % of control
T/C (dose: 200.0 mg/kg/injection, schedule: Q01DX009 (ip), vehicle: saline with Tween-80): 106 % of control (2×)
T/C [4]: 142 % of control [5 of 6 alive]

CN(C)/C(N)=N/P(=O)(OCc1ccccc1)OCc1ccccc1
T/C [10]: 109 % of control
T/C [11]: 106 % of control
T/C [12]: 99 % of control

COc1ccc2c(c1)[C@]1(C)CC[C@@H](O2)[C@]12CO2
T/C (dose: 10.0 mg/kg/injection, schedule: Q01DX009 (ip), vehicle: Klucel (hydroxypropylcellulose) (HPC)): 95 and 104 % of control
T/C (dose: 12.5 mg/kg/injection, schedule: Q01DX009 (ip), vehicle: saline with Tween-80): 87 % of control
T/C (dose: 20.0 mg/kg/injection, schedule: Q01DX009 (ip), vehicle: Klucel (hydroxypropylcellulose) (HPC)): 100 and 108 % of control
T/C [7]: 94 % of control
T/C (dose: 40.0 mg/kg/injection, schedule: Q01DX009 (ip), vehicle: Klucel (hydroxypropylcellulose) (HPC)): 101 and 112 % of control
T/C [8]: 107 % of control
T/C (dose: 80.0 mg/kg/injection, schedule: Q01DX009 (ip), vehicle: Klucel (hydroxypropylcellulose) (HPC)): 104 and 134 % of control
T/C (dose: 160.0 mg/kg/injection, schedule: Q01DX009 (ip), vehicle: Klucel (hydroxypropylcellulose) (HPC)): 123 % of control

CC1(CCl)COP(=O)(n2ccnc2)OC1 (stereo not drawn)
T/C (dose: 60.0 mg/kg/injection, schedule: Q01DX005 (ip), vehicle: saline): 101 % of control
T/C (dose: 120.0 mg/kg/injection, schedule: Q01DX005 (ip), vehicle: saline): 103 % of control
T/C (dose: 240.0 mg/kg/injection, schedule: Q01DX005 (ip), vehicle: saline): 100 % of control

CCCNC(=O)c1ccc(N(CCCl)CCCl)cc1
T/C (dose: 6.25 mg/kg/injection, schedule: Q01DX009 (ip), vehicle: Klucel (hydroxypropylcellulose) (HPC)): 125 % of control
T/C (dose: 12.5 mg/kg/injection, schedule: Q01DX009 (ip), vehicle: Klucel (hydroxypropylcellulose) (HPC)): 109 % of control
T/C (dose: 25.0 mg/kg/injection, schedule: Q01DX009 (ip), vehicle: Klucel (hydroxypropylcellulose) (HPC)): 112 and 134 % of control
T/C [10]: 113 and 118 % of control
T/C [11]: 101 % of control
survivor count [12]: 0 of 6

O=[N+]([O-])c1c(Cl)c([N+](=O)[O-])c(Cl)c([N+](=O)[O-])c1Cl
T/C [3]: 116 % of control
T/C [4]: 107 % of control
T/C [5]: 99 % of control [5 of 6 alive]

CC1(C)OCC(COC(=O)N(CCCl)CCCl)O1 (stereo not drawn)
T/C (dose: 1.56 mg/kg/injection, schedule: Q01DX009 (ip), vehicle: water): 100 % of control
T/C (dose: 3.13 mg/kg/injection, schedule: Q01DX009 (ip), vehicle: water): 107 % of control
T/C (dose: 6.25 mg/kg/injection, schedule: Q01DX009 (ip), vehicle: water): 97 and 109 % of control
T/C (dose: 12.5 mg/kg/injection, schedule: Q01DX009 (ip), vehicle: water): 102 and 109 % of control
T/C (dose: 25.0 mg/kg/injection, schedule: Q01DX009 (ip), vehicle: water): 120 and 131 % of control
T/C (dose: 50.0 mg/kg/injection, schedule: Q01DX009 (ip), vehicle: water): 127 % of control
T/C (dose: 100.0 mg/kg/injection, schedule: Q01DX009 (ip), vehicle: water): 172 % of control

CCOC(=O)COc1cccc(N(CCCl)CCCl)c1
T/C (dose: 12.5 mg/kg/injection, schedule: Q04DX003 (ip), vehicle: saline with Tween-80): 100 % of control
T/C (dose: 22.0 mg/kg/injection, schedule: Q01DX009 (ip), vehicle: other): 144 % of control
T/C (dose: 25.0 mg/kg/injection, schedule: Q04DX003 (ip), vehicle: saline with Tween-80): 100 % of control
T/C (dose: 33.0 mg/kg/injection, schedule: Q01DX009 (ip), vehicle: other): 161 % of control
T/C [13]: 161 % of control
T/C [1]: 113 % of control
T/C (dose: 66.0 mg/kg/injection, schedule: Q04DX003 (ip), vehicle: saline with Tween-80): 109 % of control
T/C (dose: 75.0 mg/kg/injection, schedule: Q01DX009 (ip), vehicle: other): 177 % of control
T/C [2]: 136 % of control
T/C (dose: 150.0 mg/kg/injection, schedule: Q04DX003 (ip), vehicle: saline with Tween-80): 150 % of control [5 of 6 alive]

[N-]=[N+]=Nc1ccc(F)c([N+](=O)[O-])c1
T/C (dose: 12.5 mg/kg/injection, schedule: Q01DX009 (ip), vehicle: other): 100 % of control
T/C (dose: 25.0 mg/kg/injection, schedule: Q01DX009 (ip), vehicle: other): 109 % of control
T/C [13]: 109 % of control
survivor count (dose: 100.0 mg/kg/injection, schedule: Q01DX009 (ip), vehicle: other): 3 of 6
survivor count (dose: 200.0 mg/kg/injection, schedule: Q01DX009 (ip), vehicle: other): 3 of 6

CC(C)(Cl)CSSCC(C)(C)Cl
T/C [9]: 89 % of control [5 of 6 alive]
T/C [3]: 99 % of control
T/C [4]: 100 % of control
